Measured values as given in PubChem BioAssay AID1508600 (Functional Genomics Laboratory (NCATS/FGL), 2020).
Among all 53,000 sequences or so, about 3,700 (7%) were called active.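 Rule for the calls: active = gene knockdowns whose robust z-score for IL-1 alpha signal is at least 2 or at most -2, so actives lie on both sides; inactive = the rest.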 Some of the results follow.

Assay: Components of the Cytosolic LPS Sensing Pathway: Gene Identification via Genome-wide siRNA Screen;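 note: robust z of the log signal after scaling to non-targeting control siRNA wells of the plate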
Conditions: RAW264.7 macrophages, IL-1a HTRF, actives lie on both sides, screened at 100 nM (by protocol), cells primed 5 h with Pam3CSK4 first
Summary of the method: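 Cells (RAW264.7, 1×10^4 per well) were transfected with siRNA at 100 nM and cultured 48h at 37 degrees C. Pam3CSK4 was added for 5 hours; LipidA transfection followed for 24 hour. IL-1a was then measured by HTRF.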

z-score, active:
GGUGUUAACAAAAUGUACCTT against Phyh 2.54
GCAAAACUUGACUACCGCCTT against Bzw1 2.08
GCAAGACCGAAGUCACGGATT against Krt19 2.87
GCUUUGUUGCCCUACUACCTT against Pacrg -2.26
GCAUCAUGAACUCCUUUGUTT against H2bc1 -2.43
CCUAUGCAUCCCUGACUACTT against Tmem126b 5.07
GGGCUGACUUCCUAUGACCTT against Adra2c 2.14
GCUAGGUGGGCAACUGUAUTT against Lpar3 2.12
CCAAAACAACCACAAGUAGTT against Zfp385c -2.96
GGUUUGGCAUCUAAAGAGCTT against Olfr1412 -2.42

z-score, inactive:
GGCUGAUUCAUUUGGGAACTT against Olfr9 0.805
GGAUUAUUCCCAGUAUGAGTT against Krt23 0.125
CCUGAAUUGUUCCUUCCAUTT against Zfp771 0.482
UCUGUAAACCCUUACGAUATT against Olfr1206 0.452
CCUUGUUACACAGUUUAAATT against Aqp4 1.91
GGUGGUUGAAGAAAUGGCUTT against Timm8a1 -0.364
GGAUGUGAUUGAUAUUGAATT against Cul7 1.63
GGGCCUCAUCUUUGUGGUATT against Arf5 0.359
GGAGUUGGGUCAUCUUCGATT against Ccdc61 0.0739
GGAUCUAGGAGCUGAUUAUTT against Mecr -1.18
GGUGGAGGCAGGAAAAUCUTT against Mrpl57 -0.808
GUGAAACCUACAAAAAGCCTT against Ms4a4c 1.25
GCAGAGAGGAUAACUGACCTT against Slc25a44 -0.723
GGACGUAAUACCUGAGGAUTT against Caps2 -1.35
GGACAAGAAGGCAAAUUAGTT against Arhgap9 0.366
GCAUCUAAGAAGCUGAAAATT against Apip 0.538
GGGUUUCACAGGCAAACAGTT against Suclg1 -0.904
GGACUGAAACUCGAAGCUATT against Pou4f2 -0.603
GCUCAUCACCUAUGCAGGCTT against Olfr371 0.634
CGGAUGUGCCAUCCAUCAGTT against Tespa1 -0.135
CGUCUAAAAGCUAAAGAAUTT against Serpinb1b -0.252
GGAAAAACCUUGCUGGAACTT against Atp2a2 0.147
UGAUAGUCUCCACUAAAUUTT against Gm4884 -0.265
GCAAGAGUUAGUCUAAUGUTT against Pcid2 -0.241
GCUGGUCGAUCAGAAAUGCTT against Cfi 0.463
GGUGUGGUCAUUCCAAAUGTT against Ms4a8a 0.042
GGUAUCCUGAUUGUUGAGUTT against Fam228a 1.18
GGUGAUGCGAUCUUCUUUATT against Anxa10 1.76
ACCUCCAGUCGCAUAGAAGTT against Platr25 -1.64
GGAGUUUGAGGAUGAAGACTT against Mapk8ip1 -0.892
GGACAUUCUUCAGAACUGGTT against Ogfr -0.865
GGAGAACACAGUACAGAUGTT against Zfp398 0.676
GGCAACGAGUCAAGUGUGUTT against Ascl3 -0.589
GGAUGGAACUUACAACUGGTT against Sirpb1a 1.16
GCAGAUUUUAGCUCCUCGATT against Sybu -1.89
GGGCAAAAAUAGGAAGAACTT against Armcx2 0.849
GCAUAUGAUGCCUUCCUUCTT against Strbp -1.47
GGAGUUAAAAUCACUCAUCTT against Irgm1 1.33
GGAAAUUUCUUAGCACGAATT against Ppp4r1 -0.865
GCACUUAAGACCAAGCCUCTT against Osr1 1.28
GGAAGAGAUGGAAUUAUUGTT against Sh3bp5 -0.309
GGACUCAUUUUCUUGAUGGTT against Mre11a -1.75
CGACAAGGGUUUUUAUUCUTT against Smcr8 -0.414
GGAGAAUGAGAUUGAGUGUTT against Rnf144a 0.316
GGUCUGAGCUUCCAAUAACTT against Reep5 0.183
CCCACAAUCUCGACAGUCUTT against Simc1 1.59
GGGAACUAAGCAUUUUGAATT against Sec23a 1.7
GGUGAUGUCCUAUUUCAAATT against Erp27 0.302
GGAGCUUAUAAGAAAUGGGTT against D5Ertd579e 0.225
GGCCACAUGCUUAAAGUGCTT against Slc7a9 -0.11
GCGACAGAAGUGUCAUAAUTT against Phax 0.364
CCCUGAUACUCAAUGAAGATT against BC049762 -1.85
CCACCUAUUACAUGAUCUUTT against Rnf32 -0.23
GUGGUUUAACAUGAAGUCATT against Zfp58 -1.08
GGAUGGUUUUCAUUUGCUUTT against Cd300ld -0.606
GGUGUUUGCUAAGGUGCUCTT against Ampd3 -0.0493
CCAGUUGUGUGAAUUAUGUTT against Psmd2 -2
CCUGGGACCAACACAAAAUTT against Ssmem1 -0.936
GGAGCUCUUCAUCCUCAACTT against Prr5 -1.8
GGGAGAGAGUUGGCUCUGATT against Prg3 -0.184
CGUUGUAUUUGGAAAAGUCTT against Ppic -0.239
GGAAGUGUUUGAUGUCUUATT against Stk4 1.03
GGACAGUGGCACAAUGACATT against Dcbld1 0.225
GCGACAGCUUUGCUAAGAUTT against Ndfip2 0.553
UGACUUUUGGACACGAGGCTT against Trim15 -0.159
CGGCUUAGUAAAUGUGACUTT against Cct8l1 -0.828
CCACACGGUCUUAGAUGAGTT against Cdkl3 1.08
GGAUCCGUGCAGACAUUGUTT against Gstm1 0.943
GCCCUAAGGAAGUACAGAGTT against Rgs19 1.07
GGGACAAAGGUUGAACAAGTT against Zfp36l1 0.207
CCUUAUGAAUCCCGAGUACTT against Bmp6 -0.0506
GGGCUUCACUCCACUGCAUTT against Ankrd52 0.782
GGAAGAGACUUAUAAUGGUTT against Olfr1214 1.28
CCUGUUUCUUUCAUGCAGUTT against 2310022A10Rik 0.337
CCGAGCUGAGAUAUCCCAATT against Uba1y -0.908
GGUCUAGGUAGGAGAACUUTT against Elf4 0.324
UUACUGGUUGCUGUUGUGGTT against Alyref 1.35
GACAGGCGGCCUUCCGAGATT against Hyi -0.479
GGGCUGACCAUAACUUGAUTT against Unc5d -0.241
GGAUCAAGAAUCCAAGGUUTT against Nek6 -1.12
GGUACGAGCUGUUCGCCAUTT against Tbc1d31 1.51
GGAAUGCUAUCAGAGAAGATT against Zmym5 -0.0365
GGCUCAGUUUAAGAAAACATT against Pkp2 0.817
GGCUUGUCAUGAAUUUUUATT against Ankrd52 -0.896
CCUGUCGCCACGUGGAAUATT against Cnih4 0.00879
CCUAGAAAUCAGUGAAUUUTT against Ralgapa1 0.709
GGGUCUAGAGUGCAUCUUCTT against Krt78 0.418
CCCUAAAACCAAAUGUACATT against Tet2 1.7
GCAUAGUAAUCUCCGAAUATT against Zfp933 1.44
GCGGUUUCUUACCAAUAACTT against Cyp1a2 0.984
GGGACCAGAACAAAGUGGUTT against Olfr487 0.474
GGAUGGCAGACAUUAUGUCTT against Nek1 0.367
GGAGUAUCGUUUAUUCAUUTT against Slc2a2 0.161
GCUGCUGGCAACAAAUAUGTT against Tubb2a 0.826
CGAUUUCAACCGUGAAUCUTT against Tcf12 0.554
GGCAAAAGCAGACAUUGAATT against Trub1 1.23
GCUUUGACUACAUCUGAGGTT against Telo2 -1.41

Random excerpt: four entries already listed, in no set order.
z-score, inactive:
GGAAUGCUAUCAGAGAAGATT against Zmym5 -0.0365
GGAAGAGACUUAUAAUGGUTT against Olfr1214 1.28
GCAGAGAGGAUAACUGACCTT against Slc25a44 -0.723
GGUACGAGCUGUUCGCCAUTT against Tbc1d31 1.51

An excerpt from the list above, as a working copy:
z-score, inactive:
GGAGUUAAAAUCACUCAUCTT against Irgm1 1.33
GGAAAUUUCUUAGCACGAATT against Ppp4r1 -0.865
